For four molecules, binding results are on record in PMC10923651.

By UniProt entry, the sequences of proteins in these tests, tags left out.
UniProt A0A125YI50: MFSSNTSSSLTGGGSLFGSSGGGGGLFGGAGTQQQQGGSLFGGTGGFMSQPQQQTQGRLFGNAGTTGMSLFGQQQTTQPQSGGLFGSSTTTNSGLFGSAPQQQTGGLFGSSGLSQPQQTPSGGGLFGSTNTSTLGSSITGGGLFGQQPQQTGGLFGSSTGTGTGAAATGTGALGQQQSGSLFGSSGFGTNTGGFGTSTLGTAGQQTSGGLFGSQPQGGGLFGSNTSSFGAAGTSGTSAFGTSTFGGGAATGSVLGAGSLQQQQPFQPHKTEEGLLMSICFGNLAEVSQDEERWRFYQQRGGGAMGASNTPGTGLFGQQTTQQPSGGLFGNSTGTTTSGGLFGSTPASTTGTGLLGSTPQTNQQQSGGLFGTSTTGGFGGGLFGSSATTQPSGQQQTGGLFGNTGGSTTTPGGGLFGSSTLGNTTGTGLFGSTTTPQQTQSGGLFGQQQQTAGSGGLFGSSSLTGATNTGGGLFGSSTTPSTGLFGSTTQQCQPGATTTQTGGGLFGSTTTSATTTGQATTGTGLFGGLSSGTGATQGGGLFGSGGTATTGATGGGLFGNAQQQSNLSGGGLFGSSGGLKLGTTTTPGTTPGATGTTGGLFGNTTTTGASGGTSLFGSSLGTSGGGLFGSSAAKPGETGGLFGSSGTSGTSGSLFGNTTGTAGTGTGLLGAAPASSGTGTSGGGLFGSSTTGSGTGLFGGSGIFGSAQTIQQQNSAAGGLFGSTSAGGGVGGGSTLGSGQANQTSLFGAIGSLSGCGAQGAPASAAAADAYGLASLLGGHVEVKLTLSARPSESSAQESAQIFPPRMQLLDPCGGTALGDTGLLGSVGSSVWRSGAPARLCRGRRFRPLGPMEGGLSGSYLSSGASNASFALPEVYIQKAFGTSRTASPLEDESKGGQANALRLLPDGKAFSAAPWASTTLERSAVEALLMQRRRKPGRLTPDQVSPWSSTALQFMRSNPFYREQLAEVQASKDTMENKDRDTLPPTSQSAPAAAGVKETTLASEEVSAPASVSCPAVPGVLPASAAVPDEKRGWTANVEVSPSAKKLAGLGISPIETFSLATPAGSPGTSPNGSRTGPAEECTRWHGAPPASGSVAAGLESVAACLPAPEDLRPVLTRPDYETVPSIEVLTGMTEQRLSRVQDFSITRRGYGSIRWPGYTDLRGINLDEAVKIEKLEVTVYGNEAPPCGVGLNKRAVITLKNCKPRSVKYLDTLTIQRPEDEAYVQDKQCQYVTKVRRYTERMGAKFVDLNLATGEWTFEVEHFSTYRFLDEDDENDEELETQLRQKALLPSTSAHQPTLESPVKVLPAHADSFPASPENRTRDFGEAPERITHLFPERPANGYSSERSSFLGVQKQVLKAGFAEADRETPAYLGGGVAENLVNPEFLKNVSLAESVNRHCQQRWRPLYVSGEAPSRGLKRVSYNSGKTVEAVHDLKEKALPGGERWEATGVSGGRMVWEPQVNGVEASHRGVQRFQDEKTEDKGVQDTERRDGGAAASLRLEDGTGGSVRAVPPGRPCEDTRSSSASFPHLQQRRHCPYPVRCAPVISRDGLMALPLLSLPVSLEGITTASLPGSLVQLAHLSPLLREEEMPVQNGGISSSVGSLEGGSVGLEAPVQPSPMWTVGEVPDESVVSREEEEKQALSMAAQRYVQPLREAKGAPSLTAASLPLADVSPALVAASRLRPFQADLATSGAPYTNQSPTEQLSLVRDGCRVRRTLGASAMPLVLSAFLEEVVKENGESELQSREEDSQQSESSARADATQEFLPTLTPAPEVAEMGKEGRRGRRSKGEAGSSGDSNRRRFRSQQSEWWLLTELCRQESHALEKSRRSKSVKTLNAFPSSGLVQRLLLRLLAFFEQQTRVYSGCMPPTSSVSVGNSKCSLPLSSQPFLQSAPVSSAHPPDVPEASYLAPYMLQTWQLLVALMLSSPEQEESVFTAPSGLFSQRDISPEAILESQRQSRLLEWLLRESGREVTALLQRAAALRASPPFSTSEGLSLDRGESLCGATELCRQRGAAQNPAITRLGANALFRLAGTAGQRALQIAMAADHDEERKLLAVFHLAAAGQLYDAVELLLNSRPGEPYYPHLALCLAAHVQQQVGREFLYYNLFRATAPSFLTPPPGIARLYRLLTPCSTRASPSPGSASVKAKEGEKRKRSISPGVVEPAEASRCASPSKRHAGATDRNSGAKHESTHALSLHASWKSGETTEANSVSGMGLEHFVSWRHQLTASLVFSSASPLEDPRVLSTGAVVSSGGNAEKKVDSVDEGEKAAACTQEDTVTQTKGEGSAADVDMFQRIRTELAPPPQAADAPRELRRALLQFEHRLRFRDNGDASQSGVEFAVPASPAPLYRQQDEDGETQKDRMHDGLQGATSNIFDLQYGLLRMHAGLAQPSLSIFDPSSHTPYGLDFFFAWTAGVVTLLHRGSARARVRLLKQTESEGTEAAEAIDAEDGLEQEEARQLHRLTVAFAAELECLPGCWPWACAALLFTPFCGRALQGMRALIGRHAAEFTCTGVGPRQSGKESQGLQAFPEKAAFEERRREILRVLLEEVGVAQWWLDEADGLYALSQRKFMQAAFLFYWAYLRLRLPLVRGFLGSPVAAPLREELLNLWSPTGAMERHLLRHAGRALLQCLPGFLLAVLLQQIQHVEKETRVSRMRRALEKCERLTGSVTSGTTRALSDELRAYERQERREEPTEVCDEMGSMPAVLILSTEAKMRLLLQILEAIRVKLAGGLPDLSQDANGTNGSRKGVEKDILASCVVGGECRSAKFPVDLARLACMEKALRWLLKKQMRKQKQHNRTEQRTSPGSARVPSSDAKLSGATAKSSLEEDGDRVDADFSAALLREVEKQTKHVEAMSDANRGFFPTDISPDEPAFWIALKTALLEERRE
UniProt A0A125YIH2: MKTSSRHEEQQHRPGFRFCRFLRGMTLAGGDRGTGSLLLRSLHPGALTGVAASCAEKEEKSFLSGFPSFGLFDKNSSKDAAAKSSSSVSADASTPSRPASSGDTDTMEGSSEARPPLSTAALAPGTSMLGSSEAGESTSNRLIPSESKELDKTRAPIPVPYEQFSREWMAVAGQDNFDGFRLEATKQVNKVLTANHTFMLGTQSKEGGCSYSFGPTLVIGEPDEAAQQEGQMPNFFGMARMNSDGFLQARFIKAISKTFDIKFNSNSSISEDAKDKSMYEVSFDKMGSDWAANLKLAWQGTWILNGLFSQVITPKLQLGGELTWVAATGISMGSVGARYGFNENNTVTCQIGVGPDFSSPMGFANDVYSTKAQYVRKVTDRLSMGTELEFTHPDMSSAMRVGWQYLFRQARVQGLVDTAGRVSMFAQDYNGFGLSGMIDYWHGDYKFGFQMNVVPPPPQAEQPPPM
UniProt S8F418: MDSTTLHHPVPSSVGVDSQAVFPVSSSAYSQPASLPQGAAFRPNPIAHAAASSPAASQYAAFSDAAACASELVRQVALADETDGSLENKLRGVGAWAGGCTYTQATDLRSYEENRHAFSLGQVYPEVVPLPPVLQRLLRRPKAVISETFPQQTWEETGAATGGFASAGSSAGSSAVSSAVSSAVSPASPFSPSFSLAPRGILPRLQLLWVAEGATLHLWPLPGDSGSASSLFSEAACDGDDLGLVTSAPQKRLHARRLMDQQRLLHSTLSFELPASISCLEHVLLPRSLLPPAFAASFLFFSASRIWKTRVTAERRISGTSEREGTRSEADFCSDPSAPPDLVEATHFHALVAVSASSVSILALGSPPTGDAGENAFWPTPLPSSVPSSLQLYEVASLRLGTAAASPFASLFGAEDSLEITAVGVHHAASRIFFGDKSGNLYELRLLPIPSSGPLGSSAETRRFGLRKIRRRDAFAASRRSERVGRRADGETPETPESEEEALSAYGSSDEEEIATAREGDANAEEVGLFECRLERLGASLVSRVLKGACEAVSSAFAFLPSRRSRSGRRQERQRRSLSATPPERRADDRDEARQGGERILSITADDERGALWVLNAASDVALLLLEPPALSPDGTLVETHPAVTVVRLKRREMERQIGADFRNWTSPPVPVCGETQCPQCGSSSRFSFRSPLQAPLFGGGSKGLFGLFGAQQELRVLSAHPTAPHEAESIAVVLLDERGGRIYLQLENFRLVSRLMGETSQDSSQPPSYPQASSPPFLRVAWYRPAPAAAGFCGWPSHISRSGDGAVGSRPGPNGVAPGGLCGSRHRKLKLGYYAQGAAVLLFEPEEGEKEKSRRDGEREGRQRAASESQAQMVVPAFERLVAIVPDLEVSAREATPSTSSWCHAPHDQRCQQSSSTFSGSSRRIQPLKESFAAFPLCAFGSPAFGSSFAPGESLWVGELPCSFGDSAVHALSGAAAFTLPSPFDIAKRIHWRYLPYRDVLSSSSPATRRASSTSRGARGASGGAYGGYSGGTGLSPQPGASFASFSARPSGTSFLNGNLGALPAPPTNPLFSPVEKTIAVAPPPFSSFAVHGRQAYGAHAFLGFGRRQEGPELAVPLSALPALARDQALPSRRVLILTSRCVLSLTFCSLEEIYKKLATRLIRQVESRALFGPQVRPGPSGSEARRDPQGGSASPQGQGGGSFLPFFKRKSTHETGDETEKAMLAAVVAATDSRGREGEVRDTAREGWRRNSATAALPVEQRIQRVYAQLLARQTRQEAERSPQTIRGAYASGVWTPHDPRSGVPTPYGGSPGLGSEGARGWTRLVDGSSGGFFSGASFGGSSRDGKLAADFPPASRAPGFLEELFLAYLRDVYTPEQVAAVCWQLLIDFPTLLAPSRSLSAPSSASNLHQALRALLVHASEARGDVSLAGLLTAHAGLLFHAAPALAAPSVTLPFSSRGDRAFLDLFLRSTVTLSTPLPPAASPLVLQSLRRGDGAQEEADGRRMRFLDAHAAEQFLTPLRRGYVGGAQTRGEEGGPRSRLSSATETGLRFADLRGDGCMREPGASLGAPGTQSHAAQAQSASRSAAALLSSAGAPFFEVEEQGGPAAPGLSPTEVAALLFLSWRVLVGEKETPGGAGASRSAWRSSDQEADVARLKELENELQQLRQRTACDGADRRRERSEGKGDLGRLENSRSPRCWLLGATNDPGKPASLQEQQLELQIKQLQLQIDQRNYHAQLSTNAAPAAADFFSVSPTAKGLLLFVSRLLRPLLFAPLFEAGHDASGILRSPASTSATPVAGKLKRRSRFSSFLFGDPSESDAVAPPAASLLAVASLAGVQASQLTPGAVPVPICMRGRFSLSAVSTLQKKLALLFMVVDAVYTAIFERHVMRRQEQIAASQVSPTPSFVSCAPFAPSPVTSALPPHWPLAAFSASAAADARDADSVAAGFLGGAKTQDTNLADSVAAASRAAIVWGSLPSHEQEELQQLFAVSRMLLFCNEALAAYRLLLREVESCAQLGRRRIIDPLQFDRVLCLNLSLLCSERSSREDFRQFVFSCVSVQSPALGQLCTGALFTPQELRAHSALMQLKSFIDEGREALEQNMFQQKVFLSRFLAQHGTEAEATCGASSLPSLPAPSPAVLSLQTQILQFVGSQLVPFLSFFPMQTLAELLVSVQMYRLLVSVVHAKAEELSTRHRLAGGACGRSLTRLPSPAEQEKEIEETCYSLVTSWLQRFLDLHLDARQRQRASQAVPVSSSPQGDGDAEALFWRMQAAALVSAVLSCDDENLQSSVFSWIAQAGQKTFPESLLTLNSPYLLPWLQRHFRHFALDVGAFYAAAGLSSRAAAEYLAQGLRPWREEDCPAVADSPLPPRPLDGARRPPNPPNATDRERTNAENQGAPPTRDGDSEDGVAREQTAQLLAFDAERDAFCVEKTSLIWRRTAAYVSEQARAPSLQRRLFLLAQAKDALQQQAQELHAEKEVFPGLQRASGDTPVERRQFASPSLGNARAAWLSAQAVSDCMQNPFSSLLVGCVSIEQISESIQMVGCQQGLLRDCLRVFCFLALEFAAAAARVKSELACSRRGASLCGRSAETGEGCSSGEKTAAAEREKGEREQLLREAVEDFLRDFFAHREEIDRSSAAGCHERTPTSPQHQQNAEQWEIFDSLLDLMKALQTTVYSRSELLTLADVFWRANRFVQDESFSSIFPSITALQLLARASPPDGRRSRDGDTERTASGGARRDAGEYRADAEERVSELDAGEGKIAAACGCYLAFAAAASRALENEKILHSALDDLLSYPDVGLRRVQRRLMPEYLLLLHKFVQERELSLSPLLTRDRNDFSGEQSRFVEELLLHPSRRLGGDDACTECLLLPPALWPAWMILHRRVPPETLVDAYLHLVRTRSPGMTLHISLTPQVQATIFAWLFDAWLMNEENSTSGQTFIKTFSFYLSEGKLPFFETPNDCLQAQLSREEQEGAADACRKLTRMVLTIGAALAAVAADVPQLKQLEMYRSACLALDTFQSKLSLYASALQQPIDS

The experiment addresses N-terminally HA-tagged TgNup503 (Toxoplasma gondii) (UniProt S8GIN8). Nature of the experiment: affinity purification with mass spectrometry; anti-HA beads; nuclear and insoluble extracts of 5 × 10^8 tachyzoites, 16–24 h at 4°C, washes in TBS with Tween 20; two repeats, three negative controls from a parental line with no HA-tagged protein.

No constants are given. Whether binding was seen depends on the method and setting. In cells and extracts the contact can be indirect. Here binding means that the protein was enriched with, or labelled near, the bait; the list need not be complete.

On to “TgNup302 (from UniProt A0A125YI50 1-2894)”, for which the binding entry was “binds”.

Consider TgTom40 (from UniProt A0A125YIH2 1-466), for which the binding result was “binds”.

For the molecule “Hypothetical protein TGME49_258970 (from UniProt S8F418 1-3039)”, the binding entry is reported as “binds”.

B1: Hypothetical protein TGME49_287500 (protein, UniProt S8F8T7 1-556)
chain: MFANRYGLSGLLKEGHRSFTGIDEVTAKNIDACKALTDLTRTSLGPNSLSKLVVTSLGKRIVTAHTSLIVKELEVQHPAAKMLAMAAEMQQQEFGGAVNLLLVFAGQLLAQAEYLLKQGLHPNDVARGYEMAVAKLPAFLEESVCYTLKSLNDEQALAEVLESTVATKPLCTEGRLHKLVAQAAAMVMPPNNPKDFDVENIRVAKLTGGRLSQSVVLKGMVVTRPPSGSVESKQNCKVMVLGCGLECSTTEAKGTVLVHNAEELKNFTKGEERQMEEIIKGIKDAGVEVIIVHGGAISDVAQHFCNKYDILTLKIQSKFETRRLCRALGATAVVRLGVPTPEELGSCLSITVSEISSKKVTNILTKDSRVCTVVLRGSTPSVLDEAERAIDDAANLVKALTQDPRLVAGAGAAEMEMSRKFAAFGATLPGVEQYAVLKFGEAFEMIPRLLAESSGHSGTEALAALHAAHGQGRVHEGVNTDISVSYPSFKSAAAASAPSLTINAVEKKIYDHHKMKQWALRLGADAALTVLRVDQIIMARPAGGPAPRAPGAPDLD
For the molecule B1, the binding entry was “binds”.
